Data: the supplement of paper PMC10849652
This is one part of the list. Residues, ends and D or L forms follow the SMILES beside them. *: point of attachment. Cbz = O=C(OCc1ccccc1)*

The chains behind the UniProt entries cited, without tags or fusion partners. Where a name states a change or a piece, a line headed by the entry shows the natural chain unless it says otherwise.
UniProt Q12840: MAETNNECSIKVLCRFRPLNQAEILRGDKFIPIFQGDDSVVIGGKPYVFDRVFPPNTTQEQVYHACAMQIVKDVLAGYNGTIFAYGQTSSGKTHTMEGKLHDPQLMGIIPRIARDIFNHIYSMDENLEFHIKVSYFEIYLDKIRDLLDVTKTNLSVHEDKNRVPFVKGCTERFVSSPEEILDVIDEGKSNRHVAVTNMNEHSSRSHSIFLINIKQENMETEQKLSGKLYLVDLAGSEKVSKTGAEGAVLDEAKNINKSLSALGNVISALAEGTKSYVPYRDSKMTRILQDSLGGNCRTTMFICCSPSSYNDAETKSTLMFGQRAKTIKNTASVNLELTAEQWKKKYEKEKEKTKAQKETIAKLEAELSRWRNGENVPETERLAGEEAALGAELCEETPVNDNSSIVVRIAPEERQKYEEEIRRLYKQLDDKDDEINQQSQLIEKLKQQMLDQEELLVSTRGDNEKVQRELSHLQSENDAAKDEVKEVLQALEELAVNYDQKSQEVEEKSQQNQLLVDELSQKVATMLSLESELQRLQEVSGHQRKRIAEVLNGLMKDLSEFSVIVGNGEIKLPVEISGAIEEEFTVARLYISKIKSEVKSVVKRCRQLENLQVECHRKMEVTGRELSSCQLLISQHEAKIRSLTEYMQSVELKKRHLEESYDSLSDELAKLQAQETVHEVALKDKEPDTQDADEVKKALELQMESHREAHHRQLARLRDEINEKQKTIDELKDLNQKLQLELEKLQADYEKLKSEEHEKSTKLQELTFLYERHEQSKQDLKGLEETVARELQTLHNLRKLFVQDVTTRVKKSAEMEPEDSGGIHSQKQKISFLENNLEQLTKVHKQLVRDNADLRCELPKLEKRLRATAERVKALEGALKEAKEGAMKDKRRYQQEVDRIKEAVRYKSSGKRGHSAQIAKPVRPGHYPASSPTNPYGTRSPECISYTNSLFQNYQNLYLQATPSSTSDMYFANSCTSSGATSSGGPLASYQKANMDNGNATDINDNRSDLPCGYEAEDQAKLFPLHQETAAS
UniProt Q96AT1: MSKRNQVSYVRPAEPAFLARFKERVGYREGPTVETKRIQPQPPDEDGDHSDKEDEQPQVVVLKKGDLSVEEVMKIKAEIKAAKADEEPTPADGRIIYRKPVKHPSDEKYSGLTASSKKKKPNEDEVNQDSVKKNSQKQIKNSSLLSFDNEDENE
UniProt O00139: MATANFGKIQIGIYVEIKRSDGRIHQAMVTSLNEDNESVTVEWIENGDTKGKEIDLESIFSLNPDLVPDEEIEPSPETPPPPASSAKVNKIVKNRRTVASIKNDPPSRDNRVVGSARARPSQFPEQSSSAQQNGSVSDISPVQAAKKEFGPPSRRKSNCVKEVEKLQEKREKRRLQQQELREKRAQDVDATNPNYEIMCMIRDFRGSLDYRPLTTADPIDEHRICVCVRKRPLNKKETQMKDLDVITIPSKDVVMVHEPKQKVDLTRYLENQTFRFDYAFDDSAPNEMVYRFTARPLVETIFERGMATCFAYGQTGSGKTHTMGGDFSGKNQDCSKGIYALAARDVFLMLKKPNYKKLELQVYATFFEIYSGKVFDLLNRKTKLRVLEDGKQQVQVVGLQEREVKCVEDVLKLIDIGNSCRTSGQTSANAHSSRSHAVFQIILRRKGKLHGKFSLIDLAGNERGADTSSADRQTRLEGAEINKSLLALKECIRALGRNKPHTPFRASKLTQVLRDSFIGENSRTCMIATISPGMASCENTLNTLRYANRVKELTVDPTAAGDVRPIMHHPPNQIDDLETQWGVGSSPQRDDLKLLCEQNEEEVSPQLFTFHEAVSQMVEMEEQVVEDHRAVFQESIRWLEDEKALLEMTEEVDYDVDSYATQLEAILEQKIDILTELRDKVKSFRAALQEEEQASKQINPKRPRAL
UniProt Q8NC54: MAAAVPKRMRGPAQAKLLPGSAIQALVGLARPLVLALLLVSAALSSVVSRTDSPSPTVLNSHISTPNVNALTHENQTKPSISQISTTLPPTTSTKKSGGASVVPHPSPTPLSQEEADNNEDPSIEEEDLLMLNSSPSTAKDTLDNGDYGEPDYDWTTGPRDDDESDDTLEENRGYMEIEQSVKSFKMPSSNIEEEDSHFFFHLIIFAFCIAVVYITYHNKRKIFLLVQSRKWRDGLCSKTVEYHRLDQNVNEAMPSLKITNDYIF
UniProt P50748: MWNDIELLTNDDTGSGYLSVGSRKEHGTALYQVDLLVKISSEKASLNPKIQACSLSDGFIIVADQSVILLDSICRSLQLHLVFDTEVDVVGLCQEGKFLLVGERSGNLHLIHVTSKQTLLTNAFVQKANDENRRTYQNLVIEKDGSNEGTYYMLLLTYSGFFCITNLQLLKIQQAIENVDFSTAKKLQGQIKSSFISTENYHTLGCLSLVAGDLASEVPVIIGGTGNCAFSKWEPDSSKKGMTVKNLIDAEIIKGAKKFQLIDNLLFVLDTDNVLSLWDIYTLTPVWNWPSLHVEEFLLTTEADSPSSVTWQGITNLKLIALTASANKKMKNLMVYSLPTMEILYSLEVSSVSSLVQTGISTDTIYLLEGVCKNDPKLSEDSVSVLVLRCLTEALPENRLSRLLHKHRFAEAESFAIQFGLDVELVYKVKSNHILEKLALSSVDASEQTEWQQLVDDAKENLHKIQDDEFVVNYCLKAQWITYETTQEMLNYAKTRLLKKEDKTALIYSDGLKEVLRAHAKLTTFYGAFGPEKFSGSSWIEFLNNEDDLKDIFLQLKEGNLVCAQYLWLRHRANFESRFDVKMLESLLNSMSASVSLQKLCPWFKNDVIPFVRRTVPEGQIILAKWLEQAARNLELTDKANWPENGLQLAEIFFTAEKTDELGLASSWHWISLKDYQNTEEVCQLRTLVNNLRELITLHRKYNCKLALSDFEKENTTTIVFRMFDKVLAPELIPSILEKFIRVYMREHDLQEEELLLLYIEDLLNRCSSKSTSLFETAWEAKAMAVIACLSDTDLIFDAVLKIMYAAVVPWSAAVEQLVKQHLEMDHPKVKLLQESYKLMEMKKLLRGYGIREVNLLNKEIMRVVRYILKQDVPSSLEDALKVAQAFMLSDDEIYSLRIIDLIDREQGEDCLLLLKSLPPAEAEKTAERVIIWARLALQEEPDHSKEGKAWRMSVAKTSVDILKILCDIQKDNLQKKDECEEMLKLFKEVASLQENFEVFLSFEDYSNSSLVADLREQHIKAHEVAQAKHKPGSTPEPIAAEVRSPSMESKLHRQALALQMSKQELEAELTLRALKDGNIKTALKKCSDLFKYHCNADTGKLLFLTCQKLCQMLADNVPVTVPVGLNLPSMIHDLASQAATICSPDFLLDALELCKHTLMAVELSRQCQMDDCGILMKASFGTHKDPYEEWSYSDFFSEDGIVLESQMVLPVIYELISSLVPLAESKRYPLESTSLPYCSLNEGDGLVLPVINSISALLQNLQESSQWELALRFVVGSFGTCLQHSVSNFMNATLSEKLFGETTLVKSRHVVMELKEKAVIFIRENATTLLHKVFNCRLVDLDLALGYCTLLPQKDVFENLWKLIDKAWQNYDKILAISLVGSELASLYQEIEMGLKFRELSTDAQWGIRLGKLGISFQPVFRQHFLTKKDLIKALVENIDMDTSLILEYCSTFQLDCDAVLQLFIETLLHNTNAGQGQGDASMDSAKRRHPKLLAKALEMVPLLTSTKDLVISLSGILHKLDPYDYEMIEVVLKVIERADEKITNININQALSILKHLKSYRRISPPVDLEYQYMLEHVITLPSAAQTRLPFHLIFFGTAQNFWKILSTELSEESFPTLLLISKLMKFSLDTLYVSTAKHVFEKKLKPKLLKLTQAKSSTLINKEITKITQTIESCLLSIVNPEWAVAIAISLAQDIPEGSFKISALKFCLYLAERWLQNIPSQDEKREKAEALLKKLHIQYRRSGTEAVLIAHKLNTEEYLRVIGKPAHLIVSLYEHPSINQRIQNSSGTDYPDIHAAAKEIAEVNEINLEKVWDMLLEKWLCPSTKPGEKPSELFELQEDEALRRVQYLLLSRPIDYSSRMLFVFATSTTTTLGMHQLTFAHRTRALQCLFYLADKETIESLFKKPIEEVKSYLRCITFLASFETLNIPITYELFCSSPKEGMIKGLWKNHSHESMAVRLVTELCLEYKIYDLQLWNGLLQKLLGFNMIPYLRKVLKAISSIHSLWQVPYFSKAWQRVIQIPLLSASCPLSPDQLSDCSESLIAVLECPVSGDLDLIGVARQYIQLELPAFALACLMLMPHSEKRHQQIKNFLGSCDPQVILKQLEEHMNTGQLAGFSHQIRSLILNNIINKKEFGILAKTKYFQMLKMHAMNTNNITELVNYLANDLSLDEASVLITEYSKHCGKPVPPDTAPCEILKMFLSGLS
UniProt Q8IYS2: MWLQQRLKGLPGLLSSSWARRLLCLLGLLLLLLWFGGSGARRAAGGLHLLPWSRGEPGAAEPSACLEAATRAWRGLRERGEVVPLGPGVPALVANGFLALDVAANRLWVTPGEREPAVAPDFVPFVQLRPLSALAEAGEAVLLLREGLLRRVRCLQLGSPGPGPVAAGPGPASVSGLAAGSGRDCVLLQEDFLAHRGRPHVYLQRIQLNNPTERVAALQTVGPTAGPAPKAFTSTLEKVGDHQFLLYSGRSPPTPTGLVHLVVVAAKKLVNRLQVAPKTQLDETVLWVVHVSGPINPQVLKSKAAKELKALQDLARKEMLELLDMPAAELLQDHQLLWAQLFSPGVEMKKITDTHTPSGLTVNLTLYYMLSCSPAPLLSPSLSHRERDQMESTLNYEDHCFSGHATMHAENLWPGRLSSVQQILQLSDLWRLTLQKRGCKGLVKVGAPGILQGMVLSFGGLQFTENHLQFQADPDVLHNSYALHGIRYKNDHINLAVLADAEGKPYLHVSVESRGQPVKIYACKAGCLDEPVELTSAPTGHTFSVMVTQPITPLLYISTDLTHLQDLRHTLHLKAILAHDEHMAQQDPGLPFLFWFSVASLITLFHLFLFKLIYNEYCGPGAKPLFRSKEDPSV
UniProt Q9P0J7: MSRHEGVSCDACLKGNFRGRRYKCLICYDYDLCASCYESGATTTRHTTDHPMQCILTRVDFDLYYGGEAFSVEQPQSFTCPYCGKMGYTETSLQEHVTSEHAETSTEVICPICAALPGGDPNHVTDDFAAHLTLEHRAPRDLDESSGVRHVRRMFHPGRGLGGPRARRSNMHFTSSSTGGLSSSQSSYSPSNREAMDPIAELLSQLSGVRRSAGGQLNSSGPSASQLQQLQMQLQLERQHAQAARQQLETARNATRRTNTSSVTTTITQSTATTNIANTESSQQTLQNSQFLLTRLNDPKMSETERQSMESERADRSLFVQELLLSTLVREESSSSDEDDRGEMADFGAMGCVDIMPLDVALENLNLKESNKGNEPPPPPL
UniProt Q96EK5: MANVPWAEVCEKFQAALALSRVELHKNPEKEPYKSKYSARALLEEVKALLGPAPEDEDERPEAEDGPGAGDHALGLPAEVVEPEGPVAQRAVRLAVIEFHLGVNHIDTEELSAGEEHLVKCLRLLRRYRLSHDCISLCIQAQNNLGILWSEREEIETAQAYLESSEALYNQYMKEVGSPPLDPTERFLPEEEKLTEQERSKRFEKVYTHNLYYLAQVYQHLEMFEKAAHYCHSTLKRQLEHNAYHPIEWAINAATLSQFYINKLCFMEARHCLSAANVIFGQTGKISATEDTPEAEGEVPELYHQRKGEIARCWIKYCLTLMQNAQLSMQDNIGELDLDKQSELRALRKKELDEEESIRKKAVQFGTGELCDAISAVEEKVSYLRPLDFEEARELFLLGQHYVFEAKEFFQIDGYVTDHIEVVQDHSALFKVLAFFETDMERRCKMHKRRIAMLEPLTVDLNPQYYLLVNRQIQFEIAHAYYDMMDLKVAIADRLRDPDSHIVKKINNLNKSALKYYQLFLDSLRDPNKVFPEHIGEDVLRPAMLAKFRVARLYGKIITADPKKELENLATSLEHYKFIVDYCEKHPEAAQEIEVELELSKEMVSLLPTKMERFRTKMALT
UniProt Q14681: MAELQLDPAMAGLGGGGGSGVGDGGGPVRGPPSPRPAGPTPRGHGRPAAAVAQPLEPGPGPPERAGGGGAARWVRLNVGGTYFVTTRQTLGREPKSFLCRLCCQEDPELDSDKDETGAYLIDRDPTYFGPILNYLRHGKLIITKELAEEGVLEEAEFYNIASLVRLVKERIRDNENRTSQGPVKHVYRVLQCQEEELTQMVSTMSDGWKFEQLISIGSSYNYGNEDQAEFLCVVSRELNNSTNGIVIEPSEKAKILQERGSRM
UniProt Q9NXV2: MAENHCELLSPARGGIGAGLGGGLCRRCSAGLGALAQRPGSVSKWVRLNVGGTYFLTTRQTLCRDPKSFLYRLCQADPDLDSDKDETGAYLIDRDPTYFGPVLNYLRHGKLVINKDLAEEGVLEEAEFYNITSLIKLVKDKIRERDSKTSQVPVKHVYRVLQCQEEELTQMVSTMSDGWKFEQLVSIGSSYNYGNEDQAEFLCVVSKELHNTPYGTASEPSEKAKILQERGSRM

How the values were obtained:
Test in all cases: log2 fold change, soluble protein after heating vs DMSO (PISA); higher = thermal stabilisation; K562 cells, 10 uM, 30 min; active = over 0.2 and 3.5 SD of the protein, either way, in both replicates (recomputed)
IRAK-1-4 Inhibitor I = compound: C1COCCN1CCN2C3=CC=CC=C3N=C2NC(=O)C4=CC(=CC=C4)[N+](=O)[O-] [IRAK-1-4 Inhibitor I]
Summary of the method: (§1)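 K562 cells at 2×10^6 cells/mL were exposed to 10 μM compound for 30 min, then aliquots were heated for 3 min across 48°C-58°C, pooled, and extracted in PBS containing 0.5% NP-40 at 4°C. The supernatant after 21,000xg for 90 min was taken as soluble protein and measured by TMTpro 16plex LC-MS/MS with channel sums equalised. Thermal stability is reported relative to control samples, with values from duplicates. Fold changes are given on a log2 scale.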

ibrutinib = compound: C=CC(=O)N1CCC[C@@H](n2nc(-c3ccc(Oc4ccccc4)cc3)c3c(N)ncnc32)C1 [ibrutinib]
Summary of the method: as §1

[1] = compound: CC(=O)c1cnc2ccc(-c3cc(Cl)c(O)c(Cl)c3)nc2c1N[C@H]1CC[C@H](CN(C)C)CC1
Summary of the method: as §1

ralimetinib = compound: CC(C)(C)Cn1c(N)nc2ccc(-c3[nH]c(C(C)(C)C)nc3-c3ccc(F)cc3)nc21 [ralimetinib]
Summary of the method: as §1

[2] = compound: CC(C)(O)CC(=O)NCCn1ccc2ncnc(Nc3ccc(Oc4cccc(C(F)(F)F)c4)c(Cl)c3)c21
Summary of the method: as §1

[3] = compound: CC(C)C1=C2N=C(C=C(N2N=C1)NCC3=CC=CC=C3)NCCCCCCN
Summary of the method: as §1

[4] = compound: CC(C)C[C@@H](C=O)NC(=O)[C@H](CC(C)C)NC(=O)[C@H](CC(C)C)NC(=O)OCc1ccccc1
Summary of the method: as §1

pinometostat = compound: CC(C)N(C[C@H]1O[C@@H](n2cnc3c(N)ncnc32)[C@H](O)[C@@H]1O)[C@H]1C[C@@H](CCc2nc3cc(C(C)(C)C)ccc3[nH]2)C1 [pinometostat]
Summary of the method: as §1

[5] = compound: CC1=C(C(CC(=O)N1)C2=CC=C(C=C2)C(F)(F)F)C(=O)NC3=C(C=C4C(=C3)C=NN4)F
Summary of the method: as §1

[6] = compound: CC1=C(C2=C(C=C1)C(=O)C3=CC=CC=C3N2CCCN)C
Summary of the method: as §1

Measured: log2 fold change

KIF5A (UniProt Q12840)
inactive: IRAK-1-4 Inhibitor I 0.014 | ibrutinib -0.008 | [1] -0.018 | ralimetinib -0.014 | [2] -0.032 | [3] 0.025 | [4] 0.035 | pinometostat -0.003 | [5] -0.031 | [6] 0.013

KIAA1143 (UniProt Q96AT1)
inactive: IRAK-1-4 Inhibitor I 0.087 | ibrutinib 0.025 | [1] 0.148 | ralimetinib -0.002 | [2] 0.046 | [3] 0.058 | [4] 0.043 | pinometostat 0.009 | [5] 0.011 | [6] -0.047

KDM8 isoform 3 (UniProt Q8N371)
inactive: IRAK-1-4 Inhibitor I 0.005 | ibrutinib 0.018 | [1] -0.038 | ralimetinib -0.023 | [2] -0.081 | [3] -0.014 | [4] 0.014 | pinometostat 0.046 | [5] -0.003 | [6] 0.048

KIF21A isoform 4 (UniProt Q7Z4S6)
inactive: IRAK-1-4 Inhibitor I -0.025 | ibrutinib -0.053 | [1] -0.054 | ralimetinib 0.035 | [2] -0.062 | [3] -0.009 | [4] 0.084 | pinometostat 0.144 | [6] 0.096

Quoted at random: two entries already listed, in no set order.
KIF5A (UniProt Q12840)
inactive: IRAK-1-4 Inhibitor I 0.014 | ibrutinib -0.008 | [1] -0.018 | ralimetinib -0.014 | [2] -0.032 | [3] 0.025 | [4] 0.035 | pinometostat -0.003 | [5] -0.031 | [6] 0.013

KIAA1143 (UniProt Q96AT1)
inactive: IRAK-1-4 Inhibitor I 0.087 | ibrutinib 0.025 | [1] 0.148 | ralimetinib -0.002 | [2] 0.046 | [3] 0.058 | [4] 0.043 | pinometostat 0.009 | [5] 0.011 | [6] -0.047

Following part.

KIAA1191 (UniProt Q96A73)
inactive: IRAK-1-4 Inhibitor I 0.01 | ibrutinib -0.047 | [1] 0.01 | ralimetinib -0.017 | [2] 0 | [3] -0.059 | [4] -0.008 | pinometostat -0.061 | [5] 0.033 | [6] 0.159

KIF2A isoform 4 (UniProt O00139)
inactive: IRAK-1-4 Inhibitor I -0.026 | ibrutinib 0.012 | [1] -0.022 | ralimetinib 0.121 | [2] 0 | [3] -0.025 | [4] 0.057 | pinometostat 0.221 | [5] 0.004 | [6] 0.218

KPNA2 (UniProt P52292)
inactive: IRAK-1-4 Inhibitor I -0.152 | ibrutinib -0.058 | [1] 0.121 | ralimetinib 0.239 | [2] 0.055 | [3] -0.246 | [4] 0.243 | pinometostat 0.46 | [5] -0.012 | [6] -0.114

KLC1 isoform 6 (UniProt Q07866)
inactive: IRAK-1-4 Inhibitor I 0.014 | ibrutinib -0.027 | [1] -0.033 | ralimetinib -0.021 | [2] -0.022 | [3] -0.001 | [4] 0.013 | pinometostat 0.004 | [5] 0.007 | [6] 0.021

KPNB1 (UniProt Q14974)
active: [3] -0.355
inactive: IRAK-1-4 Inhibitor I -0.079 | ibrutinib -0.041 | [1] 0.033 | ralimetinib 0.042 | [2] -0.036 | [4] 0.035 | pinometostat 0.113 | [6] -0.038

JUNB (UniProt P17275)
inactive: IRAK-1-4 Inhibitor I 0.159 | ibrutinib -0.102 | [1] -0.19 | ralimetinib -0.382 | [2] 0.116 | [3] 0.014 | [4] 0.161 | pinometostat 0 | [5] 0.199 | [6] -0.121

KIAA1522 isoform 2 (UniProt Q9P206)
inactive: IRAK-1-4 Inhibitor I -0.093 | ibrutinib -0.036 | [1] -0.034 | ralimetinib 0.013 | [2] 0.041 | [3] -0.053 | [4] 0.081 | pinometostat 0.086 | [5] 0.074 | [6] -0.084

KPNA4 (UniProt O00629)
inactive: IRAK-1-4 Inhibitor I 0.008 | ibrutinib -0.016 | [1] -0.057 | ralimetinib -0.048 | [2] 0.028 | [3] -0.063 | [4] -0.02 | pinometostat -0.001
active: [6] -0.347

IWS1 (UniProt Q96ST2)
inactive: IRAK-1-4 Inhibitor I -0.026 | ibrutinib -0.027 | ralimetinib -0.04 | [2] -0.09 | [3] 0.166 | [4] -0.04 | pinometostat 0.014
active: [1] 0.492 | [6] -0.301

KCNAB2 (UniProt Q13303)
inactive: IRAK-1-4 Inhibitor I 0.017 | ibrutinib -0.021 | [1] 0.002 | ralimetinib -0.019 | [2] 0.035 | [3] 0.162 | [4] 0.026 | pinometostat -0.031 | [5] -0.024 | [6] 0.031

KCT2 (UniProt Q8NC54)
inactive: IRAK-1-4 Inhibitor I 0.039 | ibrutinib 0.029 | [1] -0.04 | ralimetinib -0.014 | [2] 0.004 | [3] -0.118 | [4] -0.011 | pinometostat 0.009 | [6] -0.035

KARS1 (UniProt Q15046)
inactive: IRAK-1-4 Inhibitor I -0.025 | ibrutinib 0.032 | [1] 0.104 | ralimetinib 0.113 | [2] 0.085 | [3] -0.002 | [4] 0.077 | pinometostat 0.232 | [5] 0.01 | [6] -0.028

KIF11 (UniProt P52732)
inactive: IRAK-1-4 Inhibitor I -0.097 | ibrutinib -0.049 | [1] 0.063 | ralimetinib 0.045 | [2] -0.024 | [3] -0.229 | [4] 0.04 | pinometostat 0.188 | [6] -0.014

KNTC1 (UniProt P50748)
inactive: IRAK-1-4 Inhibitor I -0.084 | ibrutinib -0.028 | [1] 0.058 | ralimetinib -0.007 | [2] 0.012 | [3] -0.157 | [4] 0.039 | pinometostat 0.095 | [6] -0.008

JPT2 isoform 3 (UniProt Q9H910)
inactive: IRAK-1-4 Inhibitor I 0.076 | ibrutinib -0.007 | [1] -0.022 | ralimetinib 0.018 | [2] 0.017 | [3] 0.075 | [4] 0.018 | pinometostat -0.036 | [5] 0.011 | [6] -0.027

KIAA2013 isoform 2 (UniProt Q8IYS2)
inactive: IRAK-1-4 Inhibitor I -0.002 | ibrutinib 0.003 | [1] 0.08 | ralimetinib -0.018 | [2] 0.011 | [3] -0.002 | [4] 0.004 | pinometostat 0.072 | [5] 0.044 | [6] -0.032

KCMF1 (UniProt Q9P0J7)
inactive: IRAK-1-4 Inhibitor I -0.01 | ibrutinib 0 | [1] 0.06 | ralimetinib -0.002 | [2] -0.082 | [3] -0.038 | [4] 0.076 | pinometostat 0.075 | [5] 0.055 | [6] 0.076

KIFBP (UniProt Q96EK5)
inactive: IRAK-1-4 Inhibitor I -0.019 | ibrutinib 0.011 | [1] -0.033 | ralimetinib -0.02 | [2] -0.045 | [3] -0.172 | [4] 0.2 | pinometostat 0.019 | [6] 0.054

KIF2C (UniProt Q99661)
inactive: IRAK-1-4 Inhibitor I -0.111 | ibrutinib -0.033 | [1] -0.058 | ralimetinib 0.028 | [2] -0.069 | [3] -0.065 | [4] 0.035 | pinometostat 0.031 | [6] 0.028

KCTD10 (UniProt Q9H3F6)
inactive: IRAK-1-4 Inhibitor I 0.01 | ibrutinib 0.024 | [1] -0.037 | ralimetinib -0.049 | [2] 0.043 | [4] -0.02 | pinometostat -0.021 | [6] -0.034
active: [3] 0.277

KCTD2 (UniProt Q14681)
inactive: IRAK-1-4 Inhibitor I -0.03 | ibrutinib 0.058 | [1] -0.054 | ralimetinib 0 | [2] -0.015 | [3] 0.016 | [4] 0.171 | pinometostat 0.052 | [6] -0.028

KIF13A (UniProt Q9H1H9)
inactive: IRAK-1-4 Inhibitor I 0.045 | ibrutinib 0.042 | [1] 0.047 | ralimetinib -0.015 | [2] 0.025 | [3] -0.069 | [4] 0.035 | pinometostat -0.008 | [6] -0.044

KIAA1324L (UniProt A8MWY0)
inactive: IRAK-1-4 Inhibitor I 0.027 | ibrutinib -0.056 | [1] -0.052 | ralimetinib -0.024 | [2] -0.038 | [3] 0.024 | [4] 0 | pinometostat -0.008 | [6] -0.037

KEL (UniProt P23276)
inactive: IRAK-1-4 Inhibitor I -0.001 | ibrutinib 0.052 | [1] -0.028 | ralimetinib -0.011 | [2] 0.054 | [3] 0.025 | [4] -0.102 | pinometostat -0.02 | [6] 0.041

KDM3B (UniProt Q7LBC6)
inactive: IRAK-1-4 Inhibitor I -0.01 | ibrutinib -0.04 | [1] -0.023 | ralimetinib -0.018 | [2] -0.089 | [3] -0.047 | [4] 0.014 | pinometostat -0.011 | [6] -0.007

KDM1A isoform 2 (UniProt O60341)
inactive: IRAK-1-4 Inhibitor I -0.014 | ibrutinib 0.014 | [1] -0.123 | ralimetinib 0.175 | [2] -0.111 | [3] -0.041 | [4] 0.031 | pinometostat 0.046 | [6] -0.05

KCTD5 (UniProt Q9NXV2)
inactive: IRAK-1-4 Inhibitor I -0.042 | ibrutinib -0.006 | [1] -0.006 | ralimetinib -0.015 | [2] -0.04 | [3] 0.158 | [4] 0.041 | pinometostat 0 | [5] 0.014 | [6] -0.026
